Measured values published in the supplement of paper PMC11006884.
Only a part is listed here, and it is no random draw.

Protein sequences, listed by entry. Tags and fused reporters are not part of them. Lines headed by an entry give the natural chain unless they say otherwise; changes in a name come on top.
UniProt Q9BR76, whole entry: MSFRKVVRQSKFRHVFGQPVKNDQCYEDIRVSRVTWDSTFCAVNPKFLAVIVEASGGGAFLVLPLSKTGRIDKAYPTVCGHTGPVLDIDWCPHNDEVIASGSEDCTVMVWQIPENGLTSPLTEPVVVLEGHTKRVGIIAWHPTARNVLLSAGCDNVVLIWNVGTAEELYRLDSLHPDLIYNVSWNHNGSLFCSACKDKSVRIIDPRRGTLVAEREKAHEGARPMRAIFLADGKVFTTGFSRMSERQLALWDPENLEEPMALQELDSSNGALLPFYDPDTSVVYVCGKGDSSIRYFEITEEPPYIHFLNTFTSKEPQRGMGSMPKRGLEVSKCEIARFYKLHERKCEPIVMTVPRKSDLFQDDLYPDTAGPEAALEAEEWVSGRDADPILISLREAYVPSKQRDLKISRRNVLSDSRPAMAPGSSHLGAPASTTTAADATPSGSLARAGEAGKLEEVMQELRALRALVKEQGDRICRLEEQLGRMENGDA
UniProt Q9H019: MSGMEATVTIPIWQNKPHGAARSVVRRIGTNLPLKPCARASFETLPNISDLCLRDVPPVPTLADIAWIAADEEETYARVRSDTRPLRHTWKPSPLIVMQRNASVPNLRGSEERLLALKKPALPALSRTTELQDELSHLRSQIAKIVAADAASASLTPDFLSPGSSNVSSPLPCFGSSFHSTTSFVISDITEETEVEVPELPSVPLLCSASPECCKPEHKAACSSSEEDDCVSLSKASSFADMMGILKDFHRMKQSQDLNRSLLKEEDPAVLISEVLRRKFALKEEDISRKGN
UniProt Q9BXV9: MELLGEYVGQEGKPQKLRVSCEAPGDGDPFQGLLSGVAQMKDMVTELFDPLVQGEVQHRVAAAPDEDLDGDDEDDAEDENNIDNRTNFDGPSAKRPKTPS
UniProt Q9BSD7: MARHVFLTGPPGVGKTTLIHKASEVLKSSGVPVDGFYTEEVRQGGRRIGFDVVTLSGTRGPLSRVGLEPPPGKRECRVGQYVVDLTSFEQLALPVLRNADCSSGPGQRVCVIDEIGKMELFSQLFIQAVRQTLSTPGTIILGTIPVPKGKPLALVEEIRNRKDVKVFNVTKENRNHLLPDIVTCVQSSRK
UniProt Q9BQI3, whole entry, looked up: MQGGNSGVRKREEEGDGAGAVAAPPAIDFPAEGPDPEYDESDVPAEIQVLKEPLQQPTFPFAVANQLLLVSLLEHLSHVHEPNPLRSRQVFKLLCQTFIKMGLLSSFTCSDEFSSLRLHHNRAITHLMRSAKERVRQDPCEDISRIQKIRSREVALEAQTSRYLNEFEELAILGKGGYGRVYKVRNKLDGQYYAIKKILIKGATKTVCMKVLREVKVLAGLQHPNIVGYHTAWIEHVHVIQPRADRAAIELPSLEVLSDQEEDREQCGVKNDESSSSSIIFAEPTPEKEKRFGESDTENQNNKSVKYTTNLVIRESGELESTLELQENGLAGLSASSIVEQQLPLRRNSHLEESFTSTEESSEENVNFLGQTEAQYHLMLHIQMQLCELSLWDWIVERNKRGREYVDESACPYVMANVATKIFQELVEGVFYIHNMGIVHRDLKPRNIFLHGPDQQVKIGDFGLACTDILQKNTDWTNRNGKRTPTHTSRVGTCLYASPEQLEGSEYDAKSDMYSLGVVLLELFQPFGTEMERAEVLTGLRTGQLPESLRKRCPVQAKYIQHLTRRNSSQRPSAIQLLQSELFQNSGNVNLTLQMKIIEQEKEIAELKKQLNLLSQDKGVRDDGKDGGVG
UniProt Q9BZV1: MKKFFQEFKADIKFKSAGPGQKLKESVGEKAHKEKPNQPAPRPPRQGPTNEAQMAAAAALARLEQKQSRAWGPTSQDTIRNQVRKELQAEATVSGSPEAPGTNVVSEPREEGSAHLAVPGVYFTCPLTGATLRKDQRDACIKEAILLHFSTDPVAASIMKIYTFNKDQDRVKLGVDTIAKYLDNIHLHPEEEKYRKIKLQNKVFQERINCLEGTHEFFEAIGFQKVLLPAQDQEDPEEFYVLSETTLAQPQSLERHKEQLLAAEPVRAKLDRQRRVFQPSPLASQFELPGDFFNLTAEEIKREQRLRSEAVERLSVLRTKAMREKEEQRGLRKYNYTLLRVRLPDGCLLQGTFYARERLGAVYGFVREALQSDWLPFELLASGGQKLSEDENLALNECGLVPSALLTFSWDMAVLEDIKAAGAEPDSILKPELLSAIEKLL
UniProt Q9BTE3: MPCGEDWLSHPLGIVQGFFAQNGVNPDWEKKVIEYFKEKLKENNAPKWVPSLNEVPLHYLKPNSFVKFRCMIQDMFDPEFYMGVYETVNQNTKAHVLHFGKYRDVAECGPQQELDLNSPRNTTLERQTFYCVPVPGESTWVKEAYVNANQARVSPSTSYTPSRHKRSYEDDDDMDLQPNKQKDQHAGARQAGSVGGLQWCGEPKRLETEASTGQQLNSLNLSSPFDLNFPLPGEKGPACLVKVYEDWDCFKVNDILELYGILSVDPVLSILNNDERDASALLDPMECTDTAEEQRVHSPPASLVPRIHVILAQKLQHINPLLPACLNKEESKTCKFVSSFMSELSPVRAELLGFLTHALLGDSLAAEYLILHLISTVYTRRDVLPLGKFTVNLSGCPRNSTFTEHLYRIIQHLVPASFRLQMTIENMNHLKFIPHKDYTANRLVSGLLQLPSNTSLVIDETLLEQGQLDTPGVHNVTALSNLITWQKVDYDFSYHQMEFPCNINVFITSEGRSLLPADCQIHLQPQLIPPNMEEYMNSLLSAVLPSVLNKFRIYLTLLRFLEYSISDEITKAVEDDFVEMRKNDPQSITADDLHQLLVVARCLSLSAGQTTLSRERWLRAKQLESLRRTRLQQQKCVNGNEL
UniProt Q9BTY7: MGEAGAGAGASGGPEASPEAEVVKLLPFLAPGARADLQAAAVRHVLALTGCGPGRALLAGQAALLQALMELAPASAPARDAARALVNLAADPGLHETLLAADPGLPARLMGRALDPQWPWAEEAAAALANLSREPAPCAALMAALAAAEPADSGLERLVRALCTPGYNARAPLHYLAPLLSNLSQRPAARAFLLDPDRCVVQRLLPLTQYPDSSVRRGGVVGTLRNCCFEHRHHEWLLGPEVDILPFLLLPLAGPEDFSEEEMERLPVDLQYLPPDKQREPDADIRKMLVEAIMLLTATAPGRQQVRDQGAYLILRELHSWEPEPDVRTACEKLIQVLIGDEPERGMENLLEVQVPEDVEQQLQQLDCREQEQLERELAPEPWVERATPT
UniProt Q9BRL6: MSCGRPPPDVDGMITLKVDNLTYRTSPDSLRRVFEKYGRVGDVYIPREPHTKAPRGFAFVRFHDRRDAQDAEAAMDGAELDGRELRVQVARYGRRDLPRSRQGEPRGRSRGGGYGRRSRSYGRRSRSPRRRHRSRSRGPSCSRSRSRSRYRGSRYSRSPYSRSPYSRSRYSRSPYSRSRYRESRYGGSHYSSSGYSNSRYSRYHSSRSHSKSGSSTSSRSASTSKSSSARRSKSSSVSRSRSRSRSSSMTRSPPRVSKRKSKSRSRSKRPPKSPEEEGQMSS
UniProt Q9BTC0, whole entry, looked up: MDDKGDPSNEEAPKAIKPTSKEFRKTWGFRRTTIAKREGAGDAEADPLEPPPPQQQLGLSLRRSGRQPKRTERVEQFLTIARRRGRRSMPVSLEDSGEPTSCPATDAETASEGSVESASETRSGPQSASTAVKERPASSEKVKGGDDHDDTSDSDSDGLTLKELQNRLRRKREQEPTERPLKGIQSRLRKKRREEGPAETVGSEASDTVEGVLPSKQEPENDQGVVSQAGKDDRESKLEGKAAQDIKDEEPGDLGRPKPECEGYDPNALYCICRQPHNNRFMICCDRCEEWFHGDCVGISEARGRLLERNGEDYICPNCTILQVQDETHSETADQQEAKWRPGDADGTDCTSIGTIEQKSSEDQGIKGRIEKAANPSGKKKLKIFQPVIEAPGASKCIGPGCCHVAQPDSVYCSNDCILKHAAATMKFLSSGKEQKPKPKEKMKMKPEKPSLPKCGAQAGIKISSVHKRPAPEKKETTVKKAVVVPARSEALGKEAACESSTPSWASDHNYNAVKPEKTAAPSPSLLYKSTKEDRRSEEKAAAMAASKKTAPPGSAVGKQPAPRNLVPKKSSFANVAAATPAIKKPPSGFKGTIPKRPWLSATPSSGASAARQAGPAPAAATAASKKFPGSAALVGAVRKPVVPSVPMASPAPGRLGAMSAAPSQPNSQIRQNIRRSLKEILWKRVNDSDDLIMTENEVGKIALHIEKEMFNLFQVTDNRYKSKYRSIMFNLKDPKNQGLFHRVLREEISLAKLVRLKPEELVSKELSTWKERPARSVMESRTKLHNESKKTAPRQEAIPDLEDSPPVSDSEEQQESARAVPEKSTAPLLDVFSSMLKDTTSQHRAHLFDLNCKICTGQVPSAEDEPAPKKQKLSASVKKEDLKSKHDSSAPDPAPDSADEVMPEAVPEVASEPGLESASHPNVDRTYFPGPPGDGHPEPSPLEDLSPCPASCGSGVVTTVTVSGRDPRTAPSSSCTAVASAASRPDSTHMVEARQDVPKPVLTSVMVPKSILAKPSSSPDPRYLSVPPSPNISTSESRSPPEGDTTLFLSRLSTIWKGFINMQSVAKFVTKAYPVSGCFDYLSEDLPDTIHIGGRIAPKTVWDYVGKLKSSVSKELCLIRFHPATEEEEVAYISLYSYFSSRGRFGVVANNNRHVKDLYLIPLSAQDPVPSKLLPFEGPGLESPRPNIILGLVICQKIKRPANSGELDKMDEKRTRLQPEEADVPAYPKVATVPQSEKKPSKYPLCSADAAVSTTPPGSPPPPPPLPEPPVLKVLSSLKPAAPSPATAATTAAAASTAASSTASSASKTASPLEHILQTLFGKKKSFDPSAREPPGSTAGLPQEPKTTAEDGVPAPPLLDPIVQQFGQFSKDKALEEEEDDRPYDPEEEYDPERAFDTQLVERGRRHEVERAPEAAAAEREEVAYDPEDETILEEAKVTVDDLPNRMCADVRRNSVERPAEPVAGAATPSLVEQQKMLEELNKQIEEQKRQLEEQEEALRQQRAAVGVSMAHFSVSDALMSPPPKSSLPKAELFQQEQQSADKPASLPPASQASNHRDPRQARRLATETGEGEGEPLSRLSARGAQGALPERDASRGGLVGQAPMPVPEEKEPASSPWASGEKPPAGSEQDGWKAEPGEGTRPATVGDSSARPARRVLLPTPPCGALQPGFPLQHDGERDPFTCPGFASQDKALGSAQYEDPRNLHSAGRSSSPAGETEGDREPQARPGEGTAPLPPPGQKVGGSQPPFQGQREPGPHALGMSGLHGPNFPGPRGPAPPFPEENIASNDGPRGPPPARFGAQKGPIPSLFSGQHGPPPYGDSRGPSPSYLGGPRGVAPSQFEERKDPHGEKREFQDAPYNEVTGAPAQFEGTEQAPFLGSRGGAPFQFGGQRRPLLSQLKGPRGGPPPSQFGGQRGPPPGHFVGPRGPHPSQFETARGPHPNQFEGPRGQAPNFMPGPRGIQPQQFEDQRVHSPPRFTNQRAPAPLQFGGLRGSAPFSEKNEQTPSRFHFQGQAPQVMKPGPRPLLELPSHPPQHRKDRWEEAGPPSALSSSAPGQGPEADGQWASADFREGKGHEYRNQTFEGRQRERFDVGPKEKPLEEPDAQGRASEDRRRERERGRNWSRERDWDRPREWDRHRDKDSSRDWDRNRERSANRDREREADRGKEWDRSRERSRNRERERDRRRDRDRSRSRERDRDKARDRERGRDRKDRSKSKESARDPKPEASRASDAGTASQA
UniProt Q9BUJ2: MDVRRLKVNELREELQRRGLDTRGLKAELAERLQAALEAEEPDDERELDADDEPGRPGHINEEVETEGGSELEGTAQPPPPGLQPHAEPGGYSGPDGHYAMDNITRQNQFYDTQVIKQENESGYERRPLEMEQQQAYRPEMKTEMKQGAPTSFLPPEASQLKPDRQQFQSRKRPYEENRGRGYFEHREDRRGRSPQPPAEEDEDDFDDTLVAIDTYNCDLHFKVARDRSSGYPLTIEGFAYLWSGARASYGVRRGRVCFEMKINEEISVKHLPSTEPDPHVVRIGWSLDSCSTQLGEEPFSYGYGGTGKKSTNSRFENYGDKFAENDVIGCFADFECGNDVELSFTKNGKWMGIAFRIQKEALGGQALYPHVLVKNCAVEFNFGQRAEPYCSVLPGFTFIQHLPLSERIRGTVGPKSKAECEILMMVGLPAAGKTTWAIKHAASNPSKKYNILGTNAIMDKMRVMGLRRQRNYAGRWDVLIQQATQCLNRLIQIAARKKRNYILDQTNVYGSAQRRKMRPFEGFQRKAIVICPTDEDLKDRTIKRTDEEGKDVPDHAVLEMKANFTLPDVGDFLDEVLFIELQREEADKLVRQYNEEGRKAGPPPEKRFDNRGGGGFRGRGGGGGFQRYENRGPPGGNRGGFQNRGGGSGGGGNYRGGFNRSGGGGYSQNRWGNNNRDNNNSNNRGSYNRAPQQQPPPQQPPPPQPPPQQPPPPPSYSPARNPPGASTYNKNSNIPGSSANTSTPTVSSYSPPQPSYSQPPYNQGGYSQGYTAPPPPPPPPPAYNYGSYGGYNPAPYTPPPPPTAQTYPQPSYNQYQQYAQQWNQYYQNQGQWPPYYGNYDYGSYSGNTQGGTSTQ

These targets were tested with COC(=O)C#Cc1ccccc1 [methyl 3-phenylpropiolate] (assay: log2 ratio of iodoacetamide-alkyne labeling of the cysteine site, DMSO over compound (competition); higher = stronger covalent engagement of the cysteine by the compound, active = 1 or more). Conditions: 500 µM; treatment time 1 h; system: HEK293T cell lysate.
In short: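 After 1 h at ambient temperature with vehicle or electrophile (500 µM), HEK293T lysate (2 mg/mL) was labelled for 1 h with iodoacetamide alkyne and clicked to sCIP-TMT reagents. Pooled samples were trypsin-digested overnight at 37 °C, streptavidin-enriched, acid-eluted and analysed by Orbitrap Eclipse LC-MS/MS with FAIMS, then quantified in FragPipe over three replicates with duplicate channels. A cysteine's log2 competition ratio is its mean control-channel over mean compound-channel reporter intensity. Cysteines quantified in only one replicate were not included.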

log2 ratio of iodoacetamide-alkyne labeling, inactive:
CORO1B C475 (UniProt Q9BR76) 0.0714
UniProt Q9H019_C52 0.442
UniProt Q9BXV9_C21 0.0587
TBCD C773 (UniProt Q9BTW9) 0.321
SETD2 C900 (UniProt Q9BYW2) 0.402
UniProt Q9BSD7_C184 0.0623
RBM4 C107 (UniProt Q9BWF3) -0.185
UniProt Q9BQI3_C494 0.117
UBXN6 C125 (UniProt Q9BZV1) 0.728
UniProt Q9BTE3_C287 0.647
UniProt Q9BTY7_C51 0.975
SRSF8 C3 (UniProt Q9BRL6) 0.472
DIDO1 C455 (UniProt Q9BTC0) 0.67
HNRNPUL1 C532 (UniProt Q9BUJ2) 0.22
TBCD C625 (UniProt Q9BTW9) -0.172

Nothing new here: an excerpt of the list.
log2 ratio of iodoacetamide-alkyne labeling, inactive:
CORO1B C475 (UniProt Q9BR76) 0.0714
UniProt Q9H019_C52 0.442
